Source: PubChem BioAssay AID588590 (National Center for Advancing Translational Sciences (NCATS), 2011)
Out of some 390,000 compounds screened, about 4,000 (1%) were called active. Inconclusive means that the source gave no clear call. Such entries were picked first, then a sample of the others. The call rests on the fitted dose curve; in most records, active means well fitted inhibition curve with a large enough effect; inconclusive means small, poorly fitted or top-dose-only effect, or another doubt; inactive means no such curve, though single readings can be large or run the other way. Potencies beside an inconclusive call are fits to weak or partial responses and may not hold up.

By UniProt entry, the sequences of proteins in these tests, tags left out. Where a name states a change or a piece, a line headed by the entry shows the natural chain unless it says otherwise.
UniProt Q9UNA4: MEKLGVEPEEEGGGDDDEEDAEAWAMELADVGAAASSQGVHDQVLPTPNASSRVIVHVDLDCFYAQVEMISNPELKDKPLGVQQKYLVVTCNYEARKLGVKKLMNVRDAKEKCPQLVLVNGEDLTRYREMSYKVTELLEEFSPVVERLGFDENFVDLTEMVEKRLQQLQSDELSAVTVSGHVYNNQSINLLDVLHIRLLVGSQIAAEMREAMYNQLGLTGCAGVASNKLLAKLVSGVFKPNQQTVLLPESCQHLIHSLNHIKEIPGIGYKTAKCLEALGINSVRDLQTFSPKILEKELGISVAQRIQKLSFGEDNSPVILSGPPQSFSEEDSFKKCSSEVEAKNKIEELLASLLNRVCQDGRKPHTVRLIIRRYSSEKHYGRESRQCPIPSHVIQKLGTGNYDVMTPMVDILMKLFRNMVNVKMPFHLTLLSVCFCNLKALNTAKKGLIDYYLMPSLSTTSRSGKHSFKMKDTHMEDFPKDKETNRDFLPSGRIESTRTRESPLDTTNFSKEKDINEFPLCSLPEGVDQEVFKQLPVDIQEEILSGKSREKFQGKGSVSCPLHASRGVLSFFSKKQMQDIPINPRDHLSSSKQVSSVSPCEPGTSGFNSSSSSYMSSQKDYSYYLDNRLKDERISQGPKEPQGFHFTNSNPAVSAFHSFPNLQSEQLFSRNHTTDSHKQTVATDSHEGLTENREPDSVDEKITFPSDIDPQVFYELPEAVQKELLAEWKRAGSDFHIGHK

target: DNA polymerase iota (Homo sapiens) (UniProt Q9UNA4); experiment: qHTS for Inhibitors of Polymerase Iota; details: Pol iota fluorescent replication assay, 10 min; series mostly up to 115 µM; activity, negative = inhibition: at the top concentration
Procedure, shortened: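 Pol iota at 10 nM preincubated 15 min with compounds at room temperature; reaction started with fluorescent substrate, 50 nM final. Fluorescence read kinetically at 0 and 10 min; buffer-only wells as negative control.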
Potency means the concentration at half of the fitted maximal effect.

Potency, inconclusive:
O=C1c2ccccc2-c2onc3ccc(NCc4ccco4)c1c23 56.2 µM [inhibitor, partial curve, poor fit], COc1ccc(NC(=O)C(C)Sc2cc(-c3ccccc3)nc(C)n2)cc1Cl (stereo not drawn) 89.1 µM [inhibitor, single point], CN1CCN(C(=O)CCCN2C(=O)/C(=C/c3cccc(Br)c3)SC2=S)CC1 17.8 µM [inhibitor, partial curve, poor fit], N/C(=N\OC(=O)c1cccc2ccccc12)c1cccc([N+](=O)[O-])c1 79.4 µM [inhibitor, single point], CCCC/C=C/[C@@H](c1ccccc1)C1COC(=O)CC1O (stereo partly drawn) 56.2 µM [inhibitor, partial curve, poor fit], C#CCOCCOCCOCCNc1nc(N2CCN(C(=O)[C@H](Cc3cc4ccccc4[nH]3)n3cc([C@@H](N)Cc4ccc(O)cc4)nn3)CC2)nc(N2CCN(C(=O)[C@H](Cc3cc4ccccc4[nH]3)n3cc([C@@H](N)CC(C)C)nn3)CC2)n1 8.91 µM [inhibitor, partial curve, poor fit], COc1ccc(-c2csc(NC(=O)CN3C(=O)C4CCCCC4C3=O)n2)c(OC)c1 (stereo not drawn) 79.4 µM [inhibitor, partial curve, poor fit], CN(CC(=O)NCCCn1ccnc1)S(=O)(=O)c1ccc(Cl)cc1 44.7 µM [inhibitor, partial curve, poor fit], COc1ccc(C2/C(=C(\O)c3cccc(OC)c3)C(=O)C(=O)N2c2ccccn2)cc1 (stereo not drawn) 12.6 µM [inhibitor, single point], C=COC(=O)N1CCN(/[N+]([O-])=N/Oc2ccc([N+](=O)[O-])cc2[N+](=O)[O-])CC1 15.8 µM [inhibitor, full curve], NCC(=O)NCC(=O)NC[C@H]1O[C@@H](n2ccc(=O)[nH]c2=O)[C@H](O)[C@@H]1O 79.4 µM [inhibitor, partial curve, poor fit], COc1ccccc1CNc1ncc(-c2ccccc2)n1C 39.8 µM [inhibitor, single point], O=C(CN1C(=O)CC(c2ccco2)Sc2ccccc21)Nc1ccc(Br)cc1 (stereo not drawn) 100 µM [inhibitor, partial curve, poor fit], CCc1c(C)sc2c1CCN(C(=O)Nc1cc(Cl)c(OC)cc1OC)C2c1ccccc1 (stereo not drawn) 89.1 µM [inhibitor, partial curve, poor fit], CN(C)S(=O)(=O)c1cccc(N=C2NN=C(c3ccccc3)CS2)c1 28.2 µM [inhibitor, partial curve, poor fit], CC(=O)NC12CC3CC(C1)CC(C(=O)OCC(=O)Nc1ncc(Cl)c(C)c1Cl)(C3)C2 35.5 µM [inhibitor, partial curve, poor fit], Cc1cc(/C=C2/NC(=S)NC2=O)c(C)n1-c1cccnc1 50.1 µM [inhibitor, partial curve], C[S+](C)CC(=O)c1ccc2ccccc2c1 3.55 µM [inhibitor, full curve], COc1ccc(NC2c3ncccc3C(=O)N2Cc2ccccc2)c(OC)c1 (stereo not drawn) 1.41 µM [inhibitor, full curve, poor fit], O=C(CCC(=O)N1CCc2ccccc2C1)NCCc1ccc(Cl)cc1 10 µM [inhibitor, partial curve, poor fit], COc1cc(CN2CCCN(C)CC2)c([N+](=O)[O-])cc1OC 22.4 µM [inhibitor, partial curve, poor fit], O=C(Nc1cccnc1)c1ccc(NS(=O)(=O)c2cc([N+](=O)[O-])ccc2Cl)cc1 44.7 µM [inhibitor, partial curve], Cc1ccccc1[C@@H]1C(C#N)=C(N)S[C@H]1C(=O)c1ccccc1 14.1 µM [inhibitor, full curve, poor fit], FC(F)C(F)(F)C1=CC(c2cccs2)=NCCN1 39.8 µM [inhibitor, single point], C(=Nc1ccc(/C=C/c2ccnc3ccccc23)cc1)c1cc2c3c(c1)CCCN3CCC2 44.7 µM [inhibitor, partial curve], Cc1c(C(=O)N/N=C/c2ccoc2)cccc1[N+](=O)[O-] 89.1 µM [inhibitor, single point], CCN(CCCNC(=O)Cn1ncc2c(=O)oc3ccccc3c21)c1cccc(C)c1 1.58 µM [inhibitor, partial curve, poor fit]

Potency, active:
CC1(C)CCC(c2ccc(Cl)cc2)=C(CN2CCN(c3ccc(C(=O)NS(=O)(=O)c4ccc(N[C@H](CCN5CCOCC5)CSc5ccccc5)c(S(=O)(=O)C(F)(F)F)c4)cc3)CC2)C1 39.8 µM

activity, negative = inhibition, inactive:
COc1ccc(N2CCN(C(=O)c3cc4c(s3)CCCCC4)CC2)cc1 -29.6%, CC(=O)Nc1ccc(NC(=O)CSc2ccc(-c3cccs3)nn2)cc1 -25.9%, COc1cc(C)ccc1OCCSc1nc2ccc(NC(=O)c3ccc(C)cc3)cc2s1 7.04%, C=CCCn1c(Cl)c(C#N)sc1=O 22.1%, COc1ccc(C)cc1NC(=O)c1cccc(-c2ccc(OC(C)=O)cc2)c1 51.4%, C#CCn1cnc2c(cnn2-c2ccc(F)cc2)c1=O 15.2%, CCOC(=O)c1ccc(N=C2SC(C(=O)NC)CC(=O)N2Cc2ccc(F)cc2)cc1 (stereo not drawn) 174%, CCc1ccc(-c2nn(CC(=O)NCc3ccccc3)c3c2cnc2ccc(C)cc23)cc1 -10.7%, CCc1ccc(-n2nc(C)c3c(C(=O)Nc4cc(C)c(Cl)cc4OC)cc(C)nc32)cc1 17.5%, CCOc1ccc(/C=C2\SC(=S)N(NS(=O)(=O)c3ccc(C)cc3)C2=O)cc1OC -15.5%
